From PubChem BioAssay AID743255 (National Center for Advancing Translational Sciences (NCATS), 2014)
About 910 (0.23%) of roughly 390,000 compounds were called active. Inconclusive results, whose numbers are uncertain, are shown with a selection of clear calls. Calls follow the shape of the dose curve; as a rule, active = well fitted inhibition curve with a large enough effect; inconclusive = small, poorly fitted or top-dose-only effect; inactive = no such curve, though single readings can be large or run the other way. Potencies beside an inconclusive call are fits to weak or partial responses and may not hold up.

By UniProt entry, the sequences of proteins in these tests, tags left out. Where a name states a change or a piece, a line headed by the entry shows the natural chain unless it says otherwise.
UniProt O94782: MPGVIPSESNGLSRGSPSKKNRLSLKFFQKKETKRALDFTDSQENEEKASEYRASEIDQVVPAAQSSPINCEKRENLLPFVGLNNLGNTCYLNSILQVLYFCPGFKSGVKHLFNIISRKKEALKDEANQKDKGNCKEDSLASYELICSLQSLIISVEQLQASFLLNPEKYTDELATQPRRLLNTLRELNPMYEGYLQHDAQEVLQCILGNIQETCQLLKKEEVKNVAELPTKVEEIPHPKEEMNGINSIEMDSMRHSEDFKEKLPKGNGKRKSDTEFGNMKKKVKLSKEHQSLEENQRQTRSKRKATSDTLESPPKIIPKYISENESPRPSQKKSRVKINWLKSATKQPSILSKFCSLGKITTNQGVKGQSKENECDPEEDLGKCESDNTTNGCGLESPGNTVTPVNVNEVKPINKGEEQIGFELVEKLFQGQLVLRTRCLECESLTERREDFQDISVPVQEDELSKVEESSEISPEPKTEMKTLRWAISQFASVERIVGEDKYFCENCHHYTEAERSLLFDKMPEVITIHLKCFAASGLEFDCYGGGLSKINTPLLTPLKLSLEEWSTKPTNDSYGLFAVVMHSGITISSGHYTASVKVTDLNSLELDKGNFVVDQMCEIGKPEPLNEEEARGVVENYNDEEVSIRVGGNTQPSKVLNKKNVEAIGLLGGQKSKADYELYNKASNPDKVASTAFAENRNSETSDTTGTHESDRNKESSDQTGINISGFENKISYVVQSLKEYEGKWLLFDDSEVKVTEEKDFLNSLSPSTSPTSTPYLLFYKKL

What follows are molecules tested against Ubiquitin carboxyl-terminal hydrolase 1 (Homo sapiens) (UniProt O94782) (assay: Inhibitors of USP1/UAF1: Primary Screen). Details: recombinant USP1/UAF1, Ub-Rhodamine cleavage fluorescence; series mostly up to 57.1 µM.
Outline: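 USP1/UAF1 complex (1 nM) preincubated 15 min at room temperature with compound, then Ub-Rho substrate (150 nM final) added. Kinetic fluorescence at 480/540 nm over 6 reads at 60 s intervals; 50 mM HEPES pH 7.8, 0.5 mM EDTA, 0.1 mg/ml BSA, 1 mM TCEP, 0.01% Tween-20.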
Also: nearly all actives have a fitted effect of over 60% in size.
Potency is read from the fitted curve at half-maximal effect.

Structure (SMILES)	Potency
COc1ccc2c(c1)CC/C(=C/c1cc(OC)c(OC)c(OC)c1)C2=O	inactive
NS(=O)(=O)c1ccc(CCNC(=O)c2ccc(CS(=O)(=O)c3ccc(Br)cc3)o2)cc1	inactive
CCCCOc1ccc(S(=O)(=O)Nc2ccc(-c3ccc(N4CCCCCC4)nn3)cc2)cc1	inconclusive: 5.01 µM [inhibitor, full curve]
Cc1ccc(NC(=O)Cc2ccc(-n3c(C)nc4cccnc43)cc2)cc1C	inconclusive: 0.316 µM [inhibitor, full curve, poor fit]
Cc1cc(C)cc(OCC(=O)NCCc2nc3ccccc3[nH]2)c1	inconclusive: 0.891 µM [inhibitor, full curve, poor fit]
Cc1cc(C)c(NC(=O)C(C)n2nc(-c3ccc(C)c(C)c3)ccc2=O)c(C)c1 (stereo not drawn)	inactive
COc1ccc(CCNC(=O)COC(=O)/C=C/c2cccs2)cc1OC	inconclusive: 39.8 µM [inhibitor, single point]
O=C(NC1CCCCC1)C(c1ccncc1)N(C(=O)c1csnn1)c1ccccc1F (stereo not drawn)	inconclusive: 5.62 µM [inhibitor, single point]
O=C(O)c1ccc(NC(=O)c2cn(-c3ccccc3)nc2-c2ccc(Cl)cc2)cc1	inconclusive: 44.7 µM [inhibitor, partial curve, poor fit]
COc1ccc(Cl)cc1NC(=S)NC(=O)c1ccco1	inconclusive: 25.1 µM [inhibitor, partial curve]
CC1CCCN(C(=O)CSc2nnc(-c3c[nH]c4ccccc34)o2)C1 (stereo not drawn)	inconclusive: 44.7 µM [inhibitor, partial curve, poor fit]
Cc1ccc([C@H]2C(C(=O)O)=CC[C@@H](c3ccc(Cl)cc3)N2S(=O)(=O)c2ccc(C)cc2)cc1	inconclusive: 44.7 µM [inhibitor, partial curve, poor fit]
Cc1ccn2c(=O)c(C(=O)O)cnc2c1	inconclusive: 0.447 µM [inhibitor, full curve, poor fit]
O=C(Nc1nccs1)c1ccc2ccccc2n1	inconclusive: 31.6 µM [inhibitor, single point]
COc1ccccc1CNC(=O)C1CCCN(c2nc3ccccc3n3cccc23)C1 (stereo not drawn)	inconclusive: 1.41 µM [inhibitor, full curve, poor fit]
CCS(=O)(=O)N1CCN(CC(=O)NC2CCCCC2)CC1	inactive
CCCn1c2ccccc2c2cnn(CC(=O)N(C)c3ccc(F)cc3)c(=O)c21	inactive
COc1ccccc1C(=O)n1nc(-c2cccnc2)nc1N	inconclusive: 31.6 µM [inhibitor, partial curve]
O=C(O)c1ccc(CSc2nnc(-c3ccccc3Cl)n2-c2ccccc2)cc1	inactive
COc1cccc(C(=O)Nc2cccc(C(=O)OCc3cc(=O)n4nc(C5CC5)sc4n3)c2)c1	inconclusive: 2 µM [inhibitor, partial curve]
CC1CCN(S(=O)(=O)c2cn(CC(=O)Nc3cccc(C(F)(F)F)c3)c(=O)c3ccccc23)CC1	inconclusive: 44.7 µM [inhibitor, partial curve]
CC(C)c1nc(CNC(=O)CC2C(=O)NCCN2Cc2ccccc2)cs1 (stereo not drawn)	inconclusive: 0.126 µM [inhibitor, full curve, poor fit]
c1ccc(CNc2nc3c(-c4ccccc4)nnn3c3ccccc23)cc1	inconclusive: 1 µM [inhibitor, full curve, poor fit]

Structure (SMILES)	Potency
CC(=O)/C(N=Nc1cc(C)ccc1O)=C(\C)O	inconclusive: 39.8 µM [inhibitor, partial curve, poor fit]
Clc1ccccc1-c1ncc(-c2ccccc2)o1	inconclusive: 28.2 µM [inhibitor, partial curve]
CCN(CC)C(=O)CCSc1nnc(-c2ccco2)o1	inconclusive: 1.12 µM [inhibitor, full curve]
Cn1cccc1/C=C1\SC(=S)N(NC(=O)c2ccccc2O)C1=O	inactive
NC(=O)c1nsc(C(=O)N(c2cccc(F)c2)C(C(=O)NCc2ccccc2)c2ccc(O)cc2)c1N (stereo not drawn)	inactive
CCOc1ccc(NC(=O)C2CCCN(S(=O)(=O)c3cccc4nonc34)C2)cc1 (stereo not drawn)	inconclusive: 5.62 µM [inhibitor, partial curve]
CCc1ccc(NCc2cc3cc4c(cc3n(CC(=O)Nc3ccc(C)cc3)c2=O)OCO4)cc1	inconclusive: 17.8 µM [inhibitor, partial curve]
N#Cc1c(N2CCCCC2)nc(N)c2c(N)nc3c(c12)CC(c1ccccc1)O3 (stereo not drawn)	inactive
Cc1nnc(SCc2ccc([N+](=O)[O-])cc2)[nH]c1=O	inconclusive: 35.5 µM [inhibitor, partial curve]
N#Cc1c(NC(NC(=O)c2ccco2)C(=O)c2ccccc2)sc2c1CCCC2 (stereo not drawn)	inconclusive: 50.1 µM [inhibitor, single point]
Cc1cccc(C(=O)OCC(=O)N2c3ccccc3CC2C)c1C (stereo not drawn)	inconclusive: 0.282 µM [inhibitor, full curve, poor fit]
CC1=NOC(=O)/C1=C/c1ccc(O)c(Cl)c1	inactive
O=C1c2ccccc2C2(c3ccccc3)N1CCN2C(=O)C(Cl)(Cl)Cl (stereo not drawn)	inactive
Cc1ccc(C)c(Nc2nnc(-n3nc(C)cc3C)c3ccccc23)c1	inactive
N#Cc1nc(-c2cccs2)oc1NCc1ccc(Cl)cc1	inactive
CC1CC(C)(C)NC(=S)N1CCCC(=O)Nc1ccc(Br)cc1 (stereo not drawn)	inactive
CC(=O)c1ccc(S(=O)(=O)Nc2cccc(-c3ccc(N4CCCCCC4)nn3)c2)cc1	inconclusive: 0.708 µM [inhibitor, full curve, poor fit]
CN(c1ccccc1)S(=O)(=O)c1cccc(NC(=O)c2cc(=O)c3ccccc3o2)c1	inactive
COc1c(NC(C)=O)c2c(c([N+](=O)[O-])c1OC)C(=O)OC2	inconclusive: 0.794 µM [inhibitor, full curve, poor fit]
COc1cc(Cl)cc(C2NC(=S)NC(c3ccccc3)=C2C(C)=O)c1OCC(=O)O (stereo not drawn)	inconclusive: 10 µM [inhibitor, partial curve, poor fit]
O=C(CSC1=NC2(CCCCC2)N=C1c1ccccc1)Nc1ccc2c(c1)OCCO2	inactive
Nc1ccc(-c2nc3ccccc3[nH]2)cc1	inconclusive: 3.55 µM [inhibitor, full curve, poor fit]
O=C(NCc1ccc(Cl)cc1)c1cnc(N2CCCCC2)c2ccccc12	inconclusive: 0.1 µM [inhibitor, full curve, poor fit]

Structure (SMILES)	Potency
CCOC(=O)Cn1c(=O)oc2cc(S(=O)(=O)N3CCN(c4cccc(C)c4C)CC3)ccc21	inactive
O=C(Nc1c(Cl)cccc1Cl)c1cc(-c2ccc3c(c2)OCO3)on1	inconclusive: 5.01 µM [inhibitor, full curve, poor fit]
Cc1ccc(OC(C)C(=O)Nc2nonc2-c2ccc(Br)cc2)cc1C (stereo not drawn)	inconclusive: 50.1 µM [inhibitor, partial curve, poor fit]
O=C(CSc1ccc(-c2ccc(Br)cc2)nn1)N1CCOCC1	inactive
CCOc1ccc(S(=O)(=O)Nc2cc(SCC(=O)O)c(O)c3ccccc23)cc1	active: 25.1 µM
O=c1c2c3c(sc2nc(N2CCNCC2)n1CCc1ccccc1)CCCCC3	inactive
CC(C)OCCCNC(=O)c1ccc2c(c1)N(Cc1c(F)cccc1Cl)C(=O)c1ccccc1S2	inconclusive: 126 µM [inhibitor, partial curve, poor fit]
CCOc1ccccc1NC(=O)CSc1nc2c(oc3ccccc32)c(=O)n1-c1ccc(C)c(C)c1	inactive
CCS(=O)(=O)N1CCC(C(=O)NC2CCCCC2)CC1	inconclusive: 1 µM [inhibitor, partial curve]
Cc1ccc(Nc2c(-c3c[nH]c4ccccc34)nc3cc(C)ccn23)cc1	inconclusive: 31.6 µM [inhibitor, partial curve]
Cc1cc(C(=O)Nc2nnc(C(F)(F)F)s2)cs1	inactive
COc1cccc(C(=O)NCc2nc(-c3ccccc3)no2)c1OC	inconclusive: 39.8 µM [inhibitor, partial curve, poor fit]
O=C(Cn1cc(SCc2cccc(Cl)c2)c2ccccc21)N1CCCCCC1	inconclusive: 0.316 µM [inhibitor, full curve]
COc1ccc(NC(=O)COC(=O)c2c(C)noc2C)cc1Cl	inconclusive: 12.6 µM [inhibitor, partial curve, poor fit]
COc1ccccc1CN(C)CC(=O)Nc1cccc2ccccc12	inconclusive: 5.62 µM [inhibitor, single point]
NC(=O)c1cc2ccc(O)cc2oc1=NCc1ccccc1	inconclusive: 31.6 µM [inhibitor, partial curve, poor fit]
O=C(CNCc1ccc(Cl)cc1)Nc1ccc(C(=O)N2CCCCC2)cc1	inactive
O=C(CN1CCCCC1)Nc1nnc(-c2ccccc2)s1	inactive
O=C(Cn1c(=O)n(Cc2ccc3c(c2)OCO3)c(=O)c2oc3ccccc3c21)Nc1ccc(F)cc1	inconclusive: 14.1 µM [inhibitor, partial curve]
Cc1cccc(C)c1OCc1cc(C(=O)N2CCC(c3ccncc3)CC2)no1	inactive
C=CCOC(=O)C(C#N)c1nc2ccccc2nc1N1CCN(Cc2ccccc2)CC1 (stereo not drawn)	inconclusive: 39.8 µM [inhibitor, partial curve]
CCOc1ccc(-n2c(=S)sc3c(=O)[nH]c(SCC(=O)N4CCC(C)CC4)nc32)cc1	inconclusive: 6.31 µM [inhibitor, full curve, poor fit]

6 entries from above, ordered by length of the SMILES, smallest number first.
Structure (SMILES)	Potency
Cc1ccn2c(=O)c(C(=O)O)cnc2c1	inconclusive: 0.447 µM [inhibitor, full curve, poor fit]
O=C(CSc1ccc(-c2ccc(Br)cc2)nn1)N1CCOCC1	inactive
c1ccc(CNc2nc3c(-c4ccccc4)nnn3c3ccccc23)cc1	inconclusive: 1 µM [inhibitor, full curve, poor fit]
CC1CCCN(C(=O)CSc2nnc(-c3c[nH]c4ccccc34)o2)C1 (stereo not drawn)	inconclusive: 44.7 µM [inhibitor, partial curve, poor fit]
C=CCOC(=O)C(C#N)c1nc2ccccc2nc1N1CCN(Cc2ccccc2)CC1 (stereo not drawn)	inconclusive: 39.8 µM [inhibitor, partial curve]
CCOc1ccccc1NC(=O)CSc1nc2c(oc3ccccc32)c(=O)n1-c1ccc(C)c(C)c1	inactive
